Source: PubChem BioAssay AID1259279 (Sanger Institute, 2017)
Assay: 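Kinase-wide knock-down seeking synergy with BYL719, cetuximab or trametinib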 (primary screen). System: LS180 human colorectal cancer cells. Knock-down reagent: siRNA pool against human genes. Treatment: anchor drug BYL719 at 1 µM, cetuximab at 5 µg/ml or trametinib at 10 nM, or DMSO vehicle only. Read-out: 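Cell viability versus a non-targeting pool, as a fraction and as a robust z-score from replicate means, plus a synergy score for each of three drugs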. Direction: viability z-score, no drug: higher = more viable cells after knock-down; viability, no drug: higher = more viable cells; synergy score with BYL719 and synergy score with cetuximab: higher = stronger synthetic lethal synergy with drug. Rule for the call: 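a knock-down is called active, meaning essential, if its viability z-score in vehicle alone falls below -3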. Calls: active = essential (knock-down alone cuts viability); inactive = no change without drug.
In all, the deposit lists 794 reagents; shown is a random part of them. 11 of them (1.4%) count as active. 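Calls reflect knock-down alone in the vehicle arm, not drug synergy.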 A number with no mark means an inactive call. Viability is capped at 1. Further read-outs or replicates are left out here. Not given: the amount of reagent, the time to read-out.

| target | viability z-score, no drug | viability, no drug (fraction) | synergy score with BYL719 | synergy score with cetuximab |
| --- | --- | --- | --- | --- |
| TEC (tec protein tyrosine kinase) | 0.279 | 0.937 | -0.104 | -0.0613 |
| TP53BP1 (tumor protein p53 binding protein 1) | 0.86 | 1 | -0.201 | -0.0323 |
| RIPK2 (receptor interacting serine/threonine kinase 2) | 0.353 | 0.945 | 0.013 | 0.0764 |
| MYO3A (myosin IIIA) | -0.621 | 0.838 | -0.0219 | -0.0742 |
| CAMK1 (calcium/calmodulin dependent protein kinase I) | -2.39 | 0.645 | -0.0976 | -0.099 |
| SRPK2 (SRSF protein kinase 2) | 0.542 | 0.965 | -0.0995 | -0.149 |
| CKS1B (CDC28 protein kinase regulatory subunit 1B) | 0.86 | 1 | -0.0183 | -0.166 |
| PRKCQ (protein kinase C theta) | 0.354 | 0.945 | 0.0619 | -0.051 |
| GUCY2D (guanylate cyclase 2D, retinal) | -5.92 (active) | 0.261 | -0.184 | -0.0702 |
| FASTK (Fas activated serine/threonine kinase) | -0.285 | 0.875 | 0.0321 | -0.175 |
| ULK1 (unc-51 like autophagy activating kinase 1) | 0.115 | 0.919 | -0.196 | -0.199 |
| FGFR4 (fibroblast growth factor receptor 4) | 0.0838 | 0.915 | -0.167 | -0.224 |
| DTYMK (deoxythymidylate kinase) | 0.86 | 1 | -0.148 | -0.166 |
| TEK (TEK receptor tyrosine kinase) | 0.86 | 1 | -0.0493 | -0.155 |
| TRIB3 (tribbles pseudokinase 3) | -0.259 | 0.878 | -0.0068 | 0.0532 |
| CAMK2G (calcium/calmodulin dependent protein kinase II gamma) | 0.86 | 1 | -0.14 | -0.131 |
| IP6K1 (inositol hexakisphosphate kinase 1) | 0.86 | 1 | -0.142 | -0.15 |
| CKMT1B (creatine kinase, mitochondrial 1B) | -0.878 | 0.81 | -0.13 | 0.016 |

In a second layout: results already given
FASTK (Fas activated serine/threonine kinase) — viability z-score, no drug: -0.285; viability, no drug (fraction): 0.875; synergy score with BYL719: 0.0321; synergy score with cetuximab: -0.175
ULK1 (unc-51 like autophagy activating kinase 1) — viability z-score, no drug: 0.115; viability, no drug (fraction): 0.919; synergy score with BYL719: -0.196; synergy score with cetuximab: -0.199
FGFR4 (fibroblast growth factor receptor 4) — viability z-score, no drug: 0.0838; viability, no drug (fraction): 0.915; synergy score with BYL719: -0.167; synergy score with cetuximab: -0.224
DTYMK (deoxythymidylate kinase) — viability z-score, no drug: 0.86; viability, no drug (fraction): 1; synergy score with BYL719: -0.148; synergy score with cetuximab: -0.166
TEK (TEK receptor tyrosine kinase) — viability z-score, no drug: 0.86; viability, no drug (fraction): 1; synergy score with BYL719: -0.0493; synergy score with cetuximab: -0.155
TRIB3 (tribbles pseudokinase 3) — viability z-score, no drug: -0.259; viability, no drug (fraction): 0.878; synergy score with BYL719: -0.0068; synergy score with cetuximab: 0.0532
CAMK2G (calcium/calmodulin dependent protein kinase II gamma) — viability z-score, no drug: 0.86; viability, no drug (fraction): 1; synergy score with BYL719: -0.14; synergy score with cetuximab: -0.131
IP6K1 (inositol hexakisphosphate kinase 1) — viability z-score, no drug: 0.86; viability, no drug (fraction): 1; synergy score with BYL719: -0.142; synergy score with cetuximab: -0.15

Continued:
| target | viability z-score, no drug | viability, no drug (fraction) | synergy score with BYL719 | synergy score with cetuximab |
| --- | --- | --- | --- | --- |
| HUS1 (HUS1 checkpoint clamp component) | 0.711 | 0.984 | -0.105 | -0.0774 |
| WIPF1 (WAS/WASL interacting protein family member 1) | -3.59 (active) | 0.514 | -0.159 | -0.206 |
| AAK1 (AP2 associated kinase 1) | -2.18 | 0.668 | -0.124 | -0.193 |
| GRK6 (G protein-coupled receptor kinase 6) | 0.401 | 0.95 | 0.0849 | 0.0981 |
| CERT1 (ceramide transporter 1) | 0.86 | 1 | -0.0495 | -0.108 |
| HK2 (hexokinase 2) | -1.48 | 0.745 | 0.00213 | -0.115 |
| DGUOK (deoxyguanosine kinase) | -0.416 | 0.861 | 0.0265 | 0.0274 |
| N4BP2 (NEDD4 binding protein 2) | 0.86 | 1 | -0.0749 | -0.166 |
| MAP4K2 (mitogen-activated protein kinase kinase kinase kinase 2) | -0.601 | 0.841 | -0.0932 | -0.16 |
| ROR2 (ROR family WNT receptor 2) | 0.0794 | 0.915 | -0.188 | -0.211 |
| BMP2K (BMP2 inducible kinase) | 0.86 | 1 | -0.124 | 0.142 |
| CLK1 (CDC like kinase 1) | 0.86 | 1 | 0.0434 | -0.0121 |
| NME2 (NME/NM23 nucleoside diphosphate kinase 2) | 0.55 | 0.966 | -0.139 | -0.194 |
| PRKCZ (protein kinase C zeta) | -1.49 | 0.743 | 0.0858 | -0.0412 |
| HIPK3 (homeodomain interacting protein kinase 3) | 0.86 | 1 | -0.0238 | -0.00716 |
| BLK (BLK proto-oncogene, Src family tyrosine kinase) | 0.688 | 0.981 | -0.0518 | -0.117 |
| ROCK1 (Rho associated coiled-coil containing protein kinase 1) | 0.86 | 1 | -0.131 | -0.145 |
| ADCK5 (aarF domain containing kinase 5) | 0.187 | 0.927 | -0.211 | -0.222 |
| IRAK1 (interleukin 1 receptor associated kinase 1) | -1.23 | 0.772 | -0.0654 | -0.0875 |
| AGK (acylglycerol kinase) | 0.276 | 0.936 | -0.0383 | -0.186 |
| HIPK2 (homeodomain interacting protein kinase 2) | 0.000392 | 0.906 | -0.0188 | 0.0413 |
| PHKG2 (phosphorylase kinase catalytic subunit gamma 2) | 0.86 | 1 | -0.004 | -0.166 |
| NRK (Nik related kinase) | 0.86 | 1 | -0.0821 | 0.00106 |
| SYNCRIP (synaptotagmin binding cytoplasmic RNA interacting protein) | -0.00187 | 0.906 | 0.138 | 0.279 |
| JAK2 (Janus kinase 2) | 0.86 | 1 | -0.00019 | -0.151 |
| GRK7 (G protein-coupled receptor kinase 7) | -2.04 | 0.684 | -0.0745 | -0.28 |
| PDK3 (pyruvate dehydrogenase kinase 3) | -0.0459 | 0.901 | 0.0867 | -0.0688 |
| PIK3CB | -0.968 | 0.801 | -0.0774 | -0.137 |
| RELA (RELA proto-oncogene, NF-kB subunit) | -0.757 | 0.824 | -0.0451 | -0.0648 |
| MAP3K8 (mitogen-activated protein kinase kinase kinase 8) | -0.555 | 0.846 | 0.00912 | -0.0398 |
| XYLB (xylulokinase) | -0.212 | 0.883 | -0.106 | -0.0981 |
| TRIB2 (tribbles pseudokinase 2) | -0.891 | 0.809 | 0.068 | 0.0311 |
